Laboratory results: US20190137501A1
No constants are given. Whether binding was seen depends on the method and setting. Some binding calls cover weakened binding; strength is not graded here.

Protein sequences, listed by entry. Tags and fused reporters are not part of them. Lines headed by an entry give the natural chain unless they say otherwise; changes in a name come on top. Chains listed by the source or under a name are the forms on record and can include a tag or linker.
Mena (Q8N8S7, form named): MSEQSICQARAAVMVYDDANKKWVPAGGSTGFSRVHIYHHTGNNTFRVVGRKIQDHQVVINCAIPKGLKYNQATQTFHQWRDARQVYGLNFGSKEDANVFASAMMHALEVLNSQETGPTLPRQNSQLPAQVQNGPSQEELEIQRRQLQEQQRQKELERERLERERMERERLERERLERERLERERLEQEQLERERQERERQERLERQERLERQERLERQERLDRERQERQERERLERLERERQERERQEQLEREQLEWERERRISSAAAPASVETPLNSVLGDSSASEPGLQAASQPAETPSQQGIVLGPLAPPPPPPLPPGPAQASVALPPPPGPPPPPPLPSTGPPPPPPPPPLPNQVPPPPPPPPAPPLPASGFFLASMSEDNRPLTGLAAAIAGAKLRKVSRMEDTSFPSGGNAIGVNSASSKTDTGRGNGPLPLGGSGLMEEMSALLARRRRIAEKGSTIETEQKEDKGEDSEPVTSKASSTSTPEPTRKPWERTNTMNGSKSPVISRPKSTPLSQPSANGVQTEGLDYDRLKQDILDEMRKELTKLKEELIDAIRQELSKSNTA

Legend:
[1] = target: epidermal growth factor receptor (EGFR) (Homo sapiens (Human)) (UniProt P00533); experiment: summary of PLA
[2] = target: epidermal growth factor receptor (EGFR) (Homo sapiens (Human)) (UniProt P00533); experiment: PLA in MDA-MB231 cells; shows proximity within 40 nm
[3] = target: epidermal growth factor receptor (EGFR) (Homo sapiens (Human)) (UniProt P00533); experiment: PLA in serum-starved or 0.25 nM EGF-stimulated MDA-MB231 cells

Measured: binding

Mena (from UniProt Q8N8S7 1-570)
binds: [1] | [2] | [3]
